Measured values from the supplement of paper PMC10849652.
Some of the results follow.

Chains of the proteins cited; added tags and fusions are not shown. Lines headed by an entry give the natural chain unless they say otherwise; changes in a name come on top.
UniProt Q8N9B5, whole entry, looked up: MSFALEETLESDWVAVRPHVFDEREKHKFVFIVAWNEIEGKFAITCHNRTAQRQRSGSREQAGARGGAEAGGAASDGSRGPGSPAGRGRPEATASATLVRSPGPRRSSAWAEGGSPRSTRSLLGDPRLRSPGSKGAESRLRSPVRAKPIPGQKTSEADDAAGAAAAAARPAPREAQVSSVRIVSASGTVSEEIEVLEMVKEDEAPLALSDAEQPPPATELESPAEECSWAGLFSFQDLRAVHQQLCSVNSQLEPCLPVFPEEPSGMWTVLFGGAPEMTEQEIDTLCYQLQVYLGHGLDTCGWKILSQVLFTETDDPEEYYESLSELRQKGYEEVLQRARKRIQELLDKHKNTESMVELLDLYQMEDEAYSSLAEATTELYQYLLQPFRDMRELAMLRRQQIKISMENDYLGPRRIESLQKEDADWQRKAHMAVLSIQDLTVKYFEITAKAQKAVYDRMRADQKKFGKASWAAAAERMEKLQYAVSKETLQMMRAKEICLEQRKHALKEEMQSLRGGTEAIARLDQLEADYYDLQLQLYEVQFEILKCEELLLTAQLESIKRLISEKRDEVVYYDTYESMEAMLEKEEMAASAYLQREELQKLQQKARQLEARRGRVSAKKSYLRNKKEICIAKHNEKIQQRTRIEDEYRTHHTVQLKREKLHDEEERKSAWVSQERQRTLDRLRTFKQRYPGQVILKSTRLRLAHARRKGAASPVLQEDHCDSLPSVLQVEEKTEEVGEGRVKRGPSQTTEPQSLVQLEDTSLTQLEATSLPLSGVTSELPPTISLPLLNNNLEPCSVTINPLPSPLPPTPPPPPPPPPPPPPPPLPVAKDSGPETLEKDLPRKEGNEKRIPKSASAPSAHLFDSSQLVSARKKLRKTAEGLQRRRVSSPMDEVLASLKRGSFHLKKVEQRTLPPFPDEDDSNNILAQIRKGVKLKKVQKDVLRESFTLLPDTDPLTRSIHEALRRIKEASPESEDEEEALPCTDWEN
UniProt O14713: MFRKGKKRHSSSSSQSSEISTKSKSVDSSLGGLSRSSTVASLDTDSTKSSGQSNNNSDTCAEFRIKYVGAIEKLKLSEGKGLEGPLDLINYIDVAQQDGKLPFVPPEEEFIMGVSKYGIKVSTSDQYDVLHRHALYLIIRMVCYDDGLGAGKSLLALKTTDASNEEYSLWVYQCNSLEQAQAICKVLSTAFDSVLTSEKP
UniProt Q96SI1: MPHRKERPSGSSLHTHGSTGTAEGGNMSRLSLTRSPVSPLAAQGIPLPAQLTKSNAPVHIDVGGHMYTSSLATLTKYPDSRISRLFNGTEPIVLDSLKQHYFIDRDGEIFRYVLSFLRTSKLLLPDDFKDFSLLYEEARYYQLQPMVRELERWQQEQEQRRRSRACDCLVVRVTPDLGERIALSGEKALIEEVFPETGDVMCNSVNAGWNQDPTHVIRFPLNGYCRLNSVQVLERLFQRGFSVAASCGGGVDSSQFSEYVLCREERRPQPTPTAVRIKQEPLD
UniProt Q9NZM3: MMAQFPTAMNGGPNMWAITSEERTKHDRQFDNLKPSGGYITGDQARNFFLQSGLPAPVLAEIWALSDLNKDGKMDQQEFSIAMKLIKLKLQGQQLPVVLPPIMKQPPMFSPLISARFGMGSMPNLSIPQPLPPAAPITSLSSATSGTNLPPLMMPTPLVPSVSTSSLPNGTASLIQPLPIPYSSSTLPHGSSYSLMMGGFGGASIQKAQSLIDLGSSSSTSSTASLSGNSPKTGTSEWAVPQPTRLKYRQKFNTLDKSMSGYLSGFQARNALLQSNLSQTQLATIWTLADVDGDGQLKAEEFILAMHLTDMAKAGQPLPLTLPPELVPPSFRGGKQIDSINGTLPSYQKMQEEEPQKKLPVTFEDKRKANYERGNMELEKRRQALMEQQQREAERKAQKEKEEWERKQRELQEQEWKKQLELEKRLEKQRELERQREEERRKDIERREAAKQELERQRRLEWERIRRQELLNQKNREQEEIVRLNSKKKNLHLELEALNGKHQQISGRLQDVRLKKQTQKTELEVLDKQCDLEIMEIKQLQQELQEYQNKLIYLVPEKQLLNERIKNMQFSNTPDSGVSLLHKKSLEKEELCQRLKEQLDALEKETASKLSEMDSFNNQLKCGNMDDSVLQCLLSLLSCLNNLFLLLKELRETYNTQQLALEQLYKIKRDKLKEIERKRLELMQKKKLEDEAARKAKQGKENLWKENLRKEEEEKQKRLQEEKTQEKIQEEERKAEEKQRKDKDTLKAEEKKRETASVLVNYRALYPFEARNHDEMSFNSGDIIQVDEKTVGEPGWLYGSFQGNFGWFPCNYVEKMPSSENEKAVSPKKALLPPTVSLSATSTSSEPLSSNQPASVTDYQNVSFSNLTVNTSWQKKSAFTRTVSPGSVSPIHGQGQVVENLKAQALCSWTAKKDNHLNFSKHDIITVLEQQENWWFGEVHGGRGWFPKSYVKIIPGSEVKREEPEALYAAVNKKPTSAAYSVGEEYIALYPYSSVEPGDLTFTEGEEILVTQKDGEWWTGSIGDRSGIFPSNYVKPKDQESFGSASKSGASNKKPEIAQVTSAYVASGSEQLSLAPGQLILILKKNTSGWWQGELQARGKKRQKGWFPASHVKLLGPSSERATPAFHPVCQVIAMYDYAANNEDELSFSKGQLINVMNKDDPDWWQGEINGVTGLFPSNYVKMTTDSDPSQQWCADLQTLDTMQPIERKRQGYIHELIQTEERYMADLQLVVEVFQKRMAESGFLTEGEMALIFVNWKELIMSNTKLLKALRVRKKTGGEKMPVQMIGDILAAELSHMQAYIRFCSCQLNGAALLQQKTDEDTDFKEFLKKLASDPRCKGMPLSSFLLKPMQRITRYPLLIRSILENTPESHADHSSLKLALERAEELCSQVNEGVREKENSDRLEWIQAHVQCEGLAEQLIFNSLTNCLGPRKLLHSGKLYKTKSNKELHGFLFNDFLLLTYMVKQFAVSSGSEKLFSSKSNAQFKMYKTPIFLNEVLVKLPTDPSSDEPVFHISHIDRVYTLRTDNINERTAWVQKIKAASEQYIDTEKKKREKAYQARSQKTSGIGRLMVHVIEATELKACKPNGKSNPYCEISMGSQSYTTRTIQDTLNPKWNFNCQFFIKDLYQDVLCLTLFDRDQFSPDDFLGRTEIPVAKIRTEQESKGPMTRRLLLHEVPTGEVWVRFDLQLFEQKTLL
UniProt Q96DU7: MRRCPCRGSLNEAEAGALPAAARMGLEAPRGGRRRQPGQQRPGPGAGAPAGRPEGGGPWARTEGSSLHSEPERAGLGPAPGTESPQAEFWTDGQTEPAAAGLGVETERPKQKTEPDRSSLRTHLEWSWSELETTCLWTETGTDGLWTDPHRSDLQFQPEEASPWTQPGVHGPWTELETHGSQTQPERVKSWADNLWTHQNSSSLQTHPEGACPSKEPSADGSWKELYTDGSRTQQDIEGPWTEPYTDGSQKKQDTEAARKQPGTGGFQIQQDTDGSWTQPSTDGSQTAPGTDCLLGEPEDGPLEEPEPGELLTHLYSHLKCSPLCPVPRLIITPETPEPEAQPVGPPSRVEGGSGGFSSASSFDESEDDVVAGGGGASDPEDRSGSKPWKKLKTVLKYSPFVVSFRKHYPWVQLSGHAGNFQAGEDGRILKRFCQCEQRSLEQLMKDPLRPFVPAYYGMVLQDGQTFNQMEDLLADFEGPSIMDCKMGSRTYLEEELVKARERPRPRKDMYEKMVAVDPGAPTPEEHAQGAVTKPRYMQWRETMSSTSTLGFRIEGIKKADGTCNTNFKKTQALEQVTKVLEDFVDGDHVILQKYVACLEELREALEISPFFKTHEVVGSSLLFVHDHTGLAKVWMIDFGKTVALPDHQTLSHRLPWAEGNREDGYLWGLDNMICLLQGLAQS
UniProt Q96A47: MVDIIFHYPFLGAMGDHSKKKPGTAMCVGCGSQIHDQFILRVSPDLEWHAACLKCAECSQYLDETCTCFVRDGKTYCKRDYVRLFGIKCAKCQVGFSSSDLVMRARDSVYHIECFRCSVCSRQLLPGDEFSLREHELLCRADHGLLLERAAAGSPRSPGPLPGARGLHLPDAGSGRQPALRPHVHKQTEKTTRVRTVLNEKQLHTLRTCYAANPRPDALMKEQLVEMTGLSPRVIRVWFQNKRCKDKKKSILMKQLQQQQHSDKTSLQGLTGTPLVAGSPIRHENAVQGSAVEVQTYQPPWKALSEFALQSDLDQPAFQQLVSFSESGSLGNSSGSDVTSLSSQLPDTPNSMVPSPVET
UniProt Q8WZ19: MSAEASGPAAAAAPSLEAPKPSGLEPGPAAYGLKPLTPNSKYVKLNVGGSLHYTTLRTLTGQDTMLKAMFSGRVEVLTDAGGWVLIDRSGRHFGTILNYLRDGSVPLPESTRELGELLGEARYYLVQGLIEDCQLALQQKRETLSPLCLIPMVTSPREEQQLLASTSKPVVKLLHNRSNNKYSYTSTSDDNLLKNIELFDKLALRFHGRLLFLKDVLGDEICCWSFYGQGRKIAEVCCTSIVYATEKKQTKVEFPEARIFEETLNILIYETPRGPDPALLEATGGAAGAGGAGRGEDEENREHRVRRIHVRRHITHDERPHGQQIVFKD
UniProt Q8NAX2: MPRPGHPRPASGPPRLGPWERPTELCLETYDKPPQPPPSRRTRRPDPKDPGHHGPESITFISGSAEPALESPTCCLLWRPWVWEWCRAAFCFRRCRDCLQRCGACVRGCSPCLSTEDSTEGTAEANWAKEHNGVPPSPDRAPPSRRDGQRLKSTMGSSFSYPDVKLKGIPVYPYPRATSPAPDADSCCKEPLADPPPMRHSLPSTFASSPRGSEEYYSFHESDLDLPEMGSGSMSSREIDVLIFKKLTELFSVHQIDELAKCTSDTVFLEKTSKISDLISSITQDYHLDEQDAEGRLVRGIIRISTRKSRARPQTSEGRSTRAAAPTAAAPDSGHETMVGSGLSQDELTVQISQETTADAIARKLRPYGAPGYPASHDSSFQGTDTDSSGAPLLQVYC
UniProt Q8NA54: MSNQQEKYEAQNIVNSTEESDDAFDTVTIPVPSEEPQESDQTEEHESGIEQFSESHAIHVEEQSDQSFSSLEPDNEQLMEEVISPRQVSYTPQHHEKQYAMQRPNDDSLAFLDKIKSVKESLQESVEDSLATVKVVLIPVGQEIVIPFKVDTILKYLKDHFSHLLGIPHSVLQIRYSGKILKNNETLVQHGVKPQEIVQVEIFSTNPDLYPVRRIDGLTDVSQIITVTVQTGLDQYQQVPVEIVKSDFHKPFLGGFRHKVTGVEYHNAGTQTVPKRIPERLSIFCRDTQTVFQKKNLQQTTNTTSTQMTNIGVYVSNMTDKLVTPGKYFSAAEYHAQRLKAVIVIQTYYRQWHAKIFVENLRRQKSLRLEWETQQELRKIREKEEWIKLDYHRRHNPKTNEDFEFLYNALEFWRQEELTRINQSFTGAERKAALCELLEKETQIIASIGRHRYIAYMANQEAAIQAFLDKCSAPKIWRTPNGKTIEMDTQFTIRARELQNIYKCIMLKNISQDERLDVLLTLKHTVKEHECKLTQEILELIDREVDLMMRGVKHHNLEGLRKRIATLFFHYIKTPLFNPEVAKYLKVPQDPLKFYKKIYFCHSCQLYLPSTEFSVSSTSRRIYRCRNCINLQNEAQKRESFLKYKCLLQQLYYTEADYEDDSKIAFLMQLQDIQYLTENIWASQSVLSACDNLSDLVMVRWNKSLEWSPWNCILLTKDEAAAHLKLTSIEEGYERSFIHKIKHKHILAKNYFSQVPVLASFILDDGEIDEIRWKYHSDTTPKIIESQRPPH
UniProt Q92993, whole entry, looked up: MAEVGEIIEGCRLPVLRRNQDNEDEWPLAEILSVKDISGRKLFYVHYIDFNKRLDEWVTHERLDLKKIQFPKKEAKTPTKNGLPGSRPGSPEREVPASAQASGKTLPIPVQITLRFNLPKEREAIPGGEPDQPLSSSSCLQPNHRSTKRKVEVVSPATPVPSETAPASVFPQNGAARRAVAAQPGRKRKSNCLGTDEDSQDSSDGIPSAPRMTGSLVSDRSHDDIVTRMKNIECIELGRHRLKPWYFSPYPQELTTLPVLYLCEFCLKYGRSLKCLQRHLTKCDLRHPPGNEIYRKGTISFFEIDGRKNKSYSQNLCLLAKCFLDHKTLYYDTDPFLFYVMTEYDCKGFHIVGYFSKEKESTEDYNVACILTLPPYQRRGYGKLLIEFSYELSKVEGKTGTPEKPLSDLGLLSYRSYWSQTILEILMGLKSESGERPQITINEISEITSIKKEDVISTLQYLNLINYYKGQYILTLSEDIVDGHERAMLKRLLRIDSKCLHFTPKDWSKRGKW
UniProt P24390: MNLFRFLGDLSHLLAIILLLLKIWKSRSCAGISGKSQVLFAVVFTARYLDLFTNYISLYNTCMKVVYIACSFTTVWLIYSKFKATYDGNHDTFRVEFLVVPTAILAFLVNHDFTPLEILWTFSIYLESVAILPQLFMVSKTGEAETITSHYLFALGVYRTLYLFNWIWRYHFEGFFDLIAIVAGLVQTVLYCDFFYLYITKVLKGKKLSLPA

Assays:
Assay in all cases: log2 fold change, soluble protein after heating vs DMSO (PISA); higher = thermal stabilisation; K562 lysate, 10 uM; active = over 0.2 and 3.5 SD of the protein, either way, in both replicates (recomputed)
ibrutinib = compound: C=CC(=O)N1CCC[C@@H](n2nc(-c3ccc(Oc4ccccc4)cc3)c3c(N)ncnc32)C1 [ibrutinib]
How it was run: (§1)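 Thermal stability, expressed as log-two fold change relative to solvent controls, is given from duplicates. Crude K562 extract in PBS pH 7.4 with 1 mM MgCl2, at 1 mg/mL protein, was treated with 10 μM compound for 30 min and heated in aliquots for 3 min across 48°C-58°C. After pooling, adjustment to 0.5% NP-40 at 4°C and centrifugation at 21,000xg for 90 min, supernatant protein was measured by TMTpro 16plex LC-MS/MS with channel sums equalised.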

[1] = compound: CC(=O)c1cnc2ccc(-c3cc(Cl)c(O)c(Cl)c3)nc2c1N[C@H]1CC[C@H](CN(C)C)CC1
How it was run: as §1

ralimetinib = compound: CC(C)(C)Cn1c(N)nc2ccc(-c3[nH]c(C(C)(C)C)nc3-c3ccc(F)cc3)nc21 [ralimetinib]
How it was run: as §1

[2] = compound: CC(C)(O)CC(=O)NCCn1ccc2ncnc(Nc3ccc(Oc4cccc(C(F)(F)F)c4)c(Cl)c3)c21
How it was run: as §1

[3] = compound: CC(C)C1=C2N=C(C=C(N2N=C1)NCC3=CC=CC=C3)NCCCCCCN
How it was run: as §1

[4] = compound: CC1=C(C2=C(C=C1)C(=O)C3=CC=CC=C3N2CCCN)C
How it was run: as §1

[5] = compound: CC1=C(C=C(C=C1)NC(=O)C2=CC(=CC=C2)C(C)(C)C#N)NC3=CC4=C(C=C3)N=CN(C4=O)C
How it was run: as §1

[6] = compound: CC1=C(C=C(C=C1)NC(=O)C2=CC(=CC=C2)N(C)C)NC(=O)C3=CC=C(C=C3)O
How it was run: as §1

[7] = compound: CC1=CC=C(C=C1)SC2=C3C=C(SC3=CN=C2)C(=O)N
How it was run: as §1

[8] = compound: CC1=C(C(CC(=O)N1)C2=CC=C(C=C2)C(F)(F)F)C(=O)NC3=C(C=C4C(=C3)C=NN4)F
How it was run: as §1

Measured: log2 fold change

JAG2 (UniProt Q9Y219)
inactive: ibrutinib 0.035 | [1] -0.056 | ralimetinib -0.028 | [2] 0.05 | [3] 0.048 | [4] 0.171 | [5] 0.172 | [6] -0.037 | [7] 0.18

ISOC2 (UniProt Q96AB3)
inactive: ibrutinib 0.017 | [1] -0.021 | ralimetinib 0.056 | [2] 0.024 | [3] 0.014 | [8] -0.004 | [4] -0.131 | [5] 0.054 | [6] 0.041 | [7] 0.035

JMY (UniProt Q8N9B5)
inactive: ibrutinib 0.117 | ralimetinib 0.176 | [2] -0.113 | [3] -0.145 | [4] -0.018 | [5] -0.087 | [6] 0.197

KAT6B (UniProt Q8WYB5)
inactive: ibrutinib 0.029 | [1] 0.03 | ralimetinib 0.087 | [2] -0.013 | [3] -0.077 | [4] -0.058 | [5] 0.278 | [6] -0.047 | [7] -0.001

JAK3 (UniProt P52333)
inactive: ibrutinib 0.076 | [1] 0.056 | [5] -0.016 | [7] 0.078

KCTD2 (UniProt Q14681)
inactive: ibrutinib 0.004 | [1] 0.114 | [8] -0.018 | [4] 0.018 | [5] 0.007 | [7] 0.007

ITGB1BP1 (UniProt O14713)
inactive: ibrutinib -0.061 | [1] -0.028 | ralimetinib -0.119 | [2] -0.217 | [3] 0.094 | [8] -0.082 | [4] 0.069 | [6] 0.016 | [7] 0.071

INTS6 (UniProt Q9UL03)
inactive: ibrutinib -0.034 | [1] 0.123 | [3] 0.008 | [8] 0.344 | [4] -0.062 | [5] 0.067 | [7] 0.023

KCTD15 (UniProt Q96SI1)
inactive: ibrutinib 0.029 | [1] -0.017 | ralimetinib 0.064 | [2] 0.055 | [3] 0.002 | [8] 0.032 | [4] -0.021 | [5] -0.02 | [6] -0.021 | [7] -0.013

ITM2C (UniProt Q9NQX7)
inactive: ibrutinib -0.201 | [1] -0.525 | ralimetinib -0.056 | [2] -0.069 | [3] -0.016 | [4] -0.083 | [5] -0.185 | [6] 0.113 | [7] -0.155

ITM2A (UniProt O43736)
inactive: ibrutinib 0.206 | [1] -0.055 | ralimetinib -0.019 | [2] -0.094 | [3] -0.051 | [8] 0.085 | [4] -0.031 | [6] 0.065 | [7] 0.288

ISCA2 (UniProt Q86U28)
inactive: ibrutinib 0.114 | [1] 0.028 | ralimetinib 0.051 | [2] -0.026 | [3] 0.025 | [8] -0.14 | [4] 0.024 | [5] 0.011 | [6] -0.047 | [7] 0.019

ITM2B (UniProt Q9Y287)
inactive: ibrutinib -0.04 | ralimetinib 0.131 | [2] -0.106 | [3] -0.044 | [8] 0.051 | [4] -0.011 | [5] 0.019 | [6] -0.088

ITPRID2 (UniProt P28290)
inactive: ibrutinib -0.033 | [1] -0.069 | ralimetinib 0.064 | [2] 0 | [3] 0.09 | [8] -0.056 | [6] 0.004 | [7] 0.109

KCNK1 (UniProt O00180)
inactive: ibrutinib -0.084 | [1] 0.06 | [3] -0.031 | [8] -0.059 | [4] -0.171 | [7] -0.036

KDM3A (UniProt Q9Y4C1)
inactive: ibrutinib 0.005 | ralimetinib -0.065 | [2] -0.069 | [3] 0.09 | [8] 0.043 | [4] -0.025 | [5] -0.007 | [6] 0.045

KDM2A (UniProt Q9Y2K7)
inactive: ibrutinib 0.028 | ralimetinib 0.168 | [2] 0.148 | [3] 0.052 | [8] 0.023 | [4] -0.025 | [6] 0.067

ITSN2 (UniProt Q9NZM3)
inactive: ibrutinib 0.002 | [1] -0.017 | ralimetinib 0.057 | [2] -0.004 | [3] 0.023 | [8] -0.028 | [4] 0.047 | [5] 0.039 | [6] -0.01 | [7] -0.028

IQCD (UniProt Q96DY2)
inactive: ibrutinib -0.01 | [1] -0.065 | [8] 0.012 | [7] 0.043

ITPKC (UniProt Q96DU7)
inactive: ibrutinib 0.004 | ralimetinib -0.019 | [2] -0.061 | [3] 0.067 | [8] 0.017 | [4] -0.021 | [5] 0.069 | [6] 0.156

ISL2 (UniProt Q96A47)
inactive: ibrutinib 0.05 | ralimetinib 0.056 | [2] -0.089 | [3] 0.019 | [4] -0.003 | [5] -0.075 | [6] 0.01

KCTD13 (UniProt Q8WZ19)
inactive: ibrutinib -0.168 | ralimetinib 0.117 | [2] 0.005 | [3] -0.249 | [8] -0.024 | [4] 0.049 | [5] 0.042 | [6] 0.064

ITGB5 (UniProt P18084)
inactive: ibrutinib 0.014 | [1] -0.013 | ralimetinib 0.048 | [2] 0.005 | [3] -0.033 | [8] -0.016 | [4] 0.045 | [5] -0.019 | [6] 0.016 | [7] -0.009

KDF1 (UniProt Q8NAX2)
inactive: ibrutinib -0.004 | [1] 0 | [3] 0.001 | [8] -0.013 | [5] 0.054 | [7] 0.115

IQUB (UniProt Q8NA54)
inactive: ibrutinib 0.04 | [1] 0.047 | [7] -0.097

ITPR1 (UniProt Q14643)
inactive: ibrutinib -0.095 | [1] -0.03 | ralimetinib -0.009 | [2] -0.133 | [5] -0.064 | [6] 0.087 | [7] -0.057

ITGAE (UniProt P38570)
inactive: ibrutinib 0.091 | [1] 0.037 | ralimetinib 0.097 | [2] -0.013 | [3] -0.189 | [8] -0.108 | [6] 0.229 | [7] -0.135

Fetched one by one from above, two records:
ITGB1BP1 (UniProt O14713)
inactive: ibrutinib -0.061 | [1] -0.028 | ralimetinib -0.119 | [2] -0.217 | [3] 0.094 | [8] -0.082 | [4] 0.069 | [6] 0.016 | [7] 0.071

ISL2 (UniProt Q96A47)
inactive: ibrutinib 0.05 | ralimetinib 0.056 | [2] -0.089 | [3] 0.019 | [4] -0.003 | [5] -0.075 | [6] 0.01

More entries

KAT14 (UniProt Q9H8E8)
inactive: ibrutinib -0.071 | [1] 0.013 | [3] -0.06 | [7] 0.112

KAT5 isoform 3 (UniProt Q92993)
inactive: ibrutinib 0.022 | [1] 0.038 | [3] -0.169 | [8] 0.048 | [4] 0.055 | [5] -0.019 | [7] -0.161

KDELR1 (UniProt P24390)
inactive: ibrutinib 0.018 | [1] 0.067 | ralimetinib 0.062 | [2] -0.154 | [3] -0.017 | [4] 0.023 | [5] -0.022 | [6] 0.009 | [7] 0.069

JPT2 isoform 2 (UniProt Q9H910)
inactive: ibrutinib -0.022 | [4] -0.187

IRF9 (UniProt Q00978)
inactive: ralimetinib 0.103 | [2] -0.066 | [3] 0.132 | [4] -0.099 | [6] 0.04
